According to PubChem BioAssay AID1273 (Columbia University Molecular Screening Center, 2008):
The other results are listed elsewhere or left out. Further columns of the screen follow, without active or inactive calls. The list favours compounds with an active or inconclusive main result.

experiment: inhibitors of insulin promoter-driven GFP, primary screen, imaging, TRM-6 cells (human fetal islet line), eGFP reporter, cell count (AID 1273); settings: measured here: cell count, toxicity, at 2 µM, reporter expression induced with tamoxifen

Row | Structure (SMILES) | normalized cell count [%]
1 | O=C(C1CN(S(=O)(=O)c2ccccc2)CCN1S(=O)(=O)c1ccccc1)N1CCCCCC1 (centres undefined) | 41.3
2 | Cc1ccc(S(=O)(=O)NNC(=O)c2cnn(-c3ccccc3)c2-n2cccc2)cc1 | 85.9
3 | Cc1ccc2c(C)nc(/N=C(\N)NC(=O)N3c4ccccc4Sc4ccccc43)nc2c1 | 120
4 | CC(NC(=O)C1CCCC1)C1CC2CCC1C2 (centres undefined) | 110
5 | COc1ccc(CC(=O)NNC(=O)CSc2nnc(Cc3ccc(OC)cc3)n2-c2ccccc2)cc1 | 83.1
6 | Nc1ccc2nc(SCc3cccc(F)c3)sc2c1 | 147
7 | Cc1cccc(N2CCN(C(=O)C(C)C)CC2)c1C | 142
8 | Cc1ccc(NCc2cccnc2)c(Br)c1 | 63.9
9 | Cc1ccc(/C=C/C(=O)Nc2cc(C)on2)cc1 | 71.4
10 | CCCCc1nc2ccccc2[nH]1 | 143
11 | COc1ccc2c(CCNC(=O)c3ccco3)c[nH]c2c1 | 74.9
12 | Fc1ccccc1CSc1nc2ccccc2[nH]1 | 129
13 | COc1ccccc1NC(=O)Nc1c(C)n(C)n(-c2ccccc2)c1=O | 17.3
14 | O=C(O)C12CC3CC(C1)CC(n1cnc(Cl)n1)(C3)C2 | 2.04
15 | Cc1c(Cl)c(C(F)(F)F)nn1CC(=O)N1CCSCC1 | 4.55
16 | COc1ccc(C(=O)Nc2ccc3c4c(cccc24)CC3)cc1 | 0.94
17 | Cc1ccccc1NC(=O)CSc1nnc(Cc2ccccc2)o1 | 166
18 | O=c1c(-n2cncn2)c[nH]n1-c1cccc(Cl)n1 | 44.4
19 | Cc1cc(C(=O)CCl)c(C)n1-c1ccon1 | 103
20 | COc1ccc(N2CC(C(=O)NCCC3=CCCCC3)CC2=O)cc1 (centres undefined) | 82.5

Among those listed so far, eight have sulfur:
Row | Structure (SMILES) | normalized cell count [%]
1 | O=C(C1CN(S(=O)(=O)c2ccccc2)CCN1S(=O)(=O)c1ccccc1)N1CCCCCC1 (centres undefined) | 41.3
2 | Cc1ccc(S(=O)(=O)NNC(=O)c2cnn(-c3ccccc3)c2-n2cccc2)cc1 | 85.9
3 | Cc1ccc2c(C)nc(/N=C(\N)NC(=O)N3c4ccccc4Sc4ccccc43)nc2c1 | 120
5 | COc1ccc(CC(=O)NNC(=O)CSc2nnc(Cc3ccc(OC)cc3)n2-c2ccccc2)cc1 | 83.1
6 | Nc1ccc2nc(SCc3cccc(F)c3)sc2c1 | 147
12 | Fc1ccccc1CSc1nc2ccccc2[nH]1 | 129
15 | Cc1c(Cl)c(C(F)(F)F)nn1CC(=O)N1CCSCC1 | 4.55
17 | Cc1ccccc1NC(=O)CSc1nnc(Cc2ccccc2)o1 | 166

The list goes on:

Row | Structure (SMILES) | normalized cell count [%]
21 | COc1ccccc1NC(=O)/C=C\C(=O)O | 38.1
22 | CNS(=O)(=O)c1cccc(C(=O)NCC(c2cccs2)N(C)C)c1 (centres undefined) | 98.4
23 | CCOC(=O)c1c(NC(C)=O)sc2c(O)c(CN3CCN(CC)CC3)ccc12 | 89.4
24 | Cc1ccc(/C=c2\sc3nc(-c4ccco4)nn3c2=O)o1 | 104
25 | Cc1ccc(C(=O)OC(C)CN2CCOCC2)cc1 (centres undefined) | 128
26 | FC(F)(F)c1ccc2c(c1)nc1n2CCCC1 | 131
27 | CCCCCCN=CC1=C(O)C(C(=O)OC)C(C)(C)CC1=O (centres undefined) | 62.7
28 | C=CCc1c(C)nc(SC(C)C)[nH]c1=O | 31
29 | Cc1ccc(NC2=NC(c3ccccc3)n3c(nc(C)cc3=O)N2)cc1 (centres undefined) | 110
30 | Cc1nn2c(C(F)(F)F)cc(-c3ccc(Cl)cc3)nc2c1C(=O)N1CCOCC1 | 71.8
31 | C[C@@H]1CC[C@@]2(O[C@H](CCO)C[C@@H](O)[C@@H]2O)O1 | 92.5
32 | CCOC(=O)c1sc(NC(=O)c2ccccc2F)c(C(N)=O)c1C | 187
33 | CC1(C)CC(NC(=O)CC2CCCCC2)CC(C)(C)N1 | 117
34 | CCOC(=O)CCc1c(C)nc2cc(-c3ccccc3OC)[nH]n2c1=O | 64.5
35 | CCOC(=O)CC(=O)CSc1ncnc2c1cnn2-c1ccccc1 | 0.86
36 | CCOC(=O)Cc1csc(NC(=O)CSc2nc(N)c3c(C)c(C)sc3n2)n1 | 20.6
37 | Cc1ccc(NC(=O)CN(C)S(=O)(=O)c2cccs2)cc1F | 64.6
38 | CC(C)(C)NC(=O)c1cccc(NC(=O)c2ccc(NC(=O)c3ccco3)cc2)c1 | 137
39 | CCOc1cc(C)c(C(C)C)cc1S(=O)(=O)n1ccc(C)n1 | 145
40 | CCOC(=O)C1CCCN(c2c(N3CCN(c4ccccn4)CC3)c(=O)c2=O)C1 (centres undefined) | 56.7

Row | Structure (SMILES) | normalized cell count [%]
41 | O=C(NC1CCCC1)C1c2ccccc2C(=O)N1CCCN1CCOCC1 (centres undefined) | 114
42 | CCCc1nc2ccccc2n2cc3c(=O)n(C)c(=O)n(C)c3c12 | 101
43 | COc1ccc(NC(=O)CSc2ccc(-c3cccs3)nn2)c(OC)c1 | 181
44 | COc1ccc2[nH]c3c(NCCN4CCCCC4)ncnc3c2c1 | 39.8
45 | C=CCn1c(SCc2csc(C)n2)nc2sc3c(c2c1=O)CCCC3 | 74.6
46 | Cc1cccc(C(C)(C)C)c1OCCn1ccnc1 | 40.7
47 | CCCc1cc(C(F)(F)F)c(C#N)c(=O)[nH]1 | 59.9
48 | CCOc1ccccc1NC(=O)c1cc(S(=O)(=O)N2CCC3(CC2)OCCO3)ccc1F | 87.2
49 | CCOC(=O)c1sc2nc(C)[nH]c(=S)c2c1C | 123
50 | COc1cccc(C(=O)Nn2cnnc2)c1 | 167
51 | CCc1cccc(C)c1NC(=S)NCc1ccc2[nH]c(C)cc2c1 | 85
52 | CC(C)(C)NC(=O)C(c1ccco1)N(C(=O)c1ccc(CN2CCOCC2)o1)c1ccccc1 (centres undefined) | 127
53 | COc1ccc(C(=O)Nc2c(N)nc(SCC(=O)N3CCCCCC3)[nH]c2=O)cc1OC | 179
54 | O=C(Nc1cc(Cl)cc(Cl)c1)c1ccc(Cn2c(=O)[nH]c3ccsc3c2=O)cc1 | 119
55 | CCCCCCCCCOC(=O)C(CC(=O)O)N1CCOCC1 (centres undefined) | 36.2
56 | O=C(Cn1nnc(-c2cccs2)n1)N1c2ccccc2Sc2ccc(C(F)(F)F)cc21 | 179
57 | CCCc1cc(NCCCCO)n2c(nc3ccccc32)c1C#N | 43.7
58 | Cc1ccc2c(Cl)c(C)c(N3CCCCC3)nc2n1 | 121
59 | CCN(CC)c1nc(OCCNC(=O)Nc2ccccc2)nc(N(CC)CC)n1 | 17.1

Reprinted at random: 2 compounds from above
Row | Structure (SMILES) | normalized cell count [%]
33 | CC1(C)CC(NC(=O)CC2CCCCC2)CC(C)(C)N1 | 117
45 | C=CCn1c(SCc2csc(C)n2)nc2sc3c(c2c1=O)CCCC3 | 74.6
